# Measured values from patent US7256006B2, “Method for determining the influence of a test substance on the heart activity of a vertebrate” (Multi Channel Systems MCS GmbH, priority 2003, dated 2007).
# Test system: ventricular myocytes from chicken embryos
# Experiment: extracellular MEA field potential (FPdur) measurement on spontaneously beating heart cells
# Assay type: cell-based
# Procedure: The heart muscle cells were obtained by trypsin digestion of the isolated ventricle of chicken embryos (10-12 days after fertilization). The heart was freed of blood vessels and atria. The cells were cultured in MEM medium supplemented with 10% fetal calf serum (FCS). One to two days before the measurement, the medium was replaced by standard Tyrode solution.
# The standard Tyrode solution was then replaced by a Tyrode solution with 5 μM of a test substance and the change in FPdur was determined. Thereafter, the concentration of the test substance was increased in logarithmic steps. A measurement was now taken every 10 minutes.
# In measurements with quinidine, 0.5% DMSO was added to the cell Tyrode since quinidine is not water-soluble. The control experiment was also carried out with DMSO here.
# In these qualitative evaluations, i.e. comparison of data from the respective control experiment and the data derived from addition of the QT-modifying substance, possible changes in the heart rate were taken into account.
# For the normalized case, the FPdur value was divided by the square root of the time span (in seconds) between two action potentials.
compound,measurement,value
CCCCc1oc2ccccc2c1C(=O)c1cc(I)c(OCCN(CC)CC)c(I)c1 [amiodarone],effect on the QT interval,prolongating effect
